According to patent EP4678658A1:
These are yes or no findings as the source states them, for the method shown. Some binding calls cover weakened binding; strength is not graded here.

Amino acid sequences for entries named in this document (tags omitted). Residues count along the entry.
UniProt P04280, residues 17-392: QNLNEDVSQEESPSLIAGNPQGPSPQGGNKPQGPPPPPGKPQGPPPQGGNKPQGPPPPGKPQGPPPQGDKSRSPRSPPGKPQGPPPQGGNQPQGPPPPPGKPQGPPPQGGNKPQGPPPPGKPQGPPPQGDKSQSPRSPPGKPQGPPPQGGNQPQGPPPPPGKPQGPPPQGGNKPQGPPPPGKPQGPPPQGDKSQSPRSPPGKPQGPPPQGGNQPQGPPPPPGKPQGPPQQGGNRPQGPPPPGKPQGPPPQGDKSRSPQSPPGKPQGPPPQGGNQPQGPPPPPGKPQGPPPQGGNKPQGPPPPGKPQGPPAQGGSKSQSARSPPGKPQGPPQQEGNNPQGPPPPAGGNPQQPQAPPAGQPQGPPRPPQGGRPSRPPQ

Experiments:
[1] = biological target: human PRB1 protein (human) (UniProt P04280); experiment: sandwich ELISA of section 4: 2B3 mAb as capture, 8A10 mAb as detection; human saliva and serum samples
[2] = biological target: human PRB1 protein (human) (UniProt P04280); experiment: sandwich ELISA: 2B3 mAb coated as capture, 8A10 mAb as detection, OD450; human saliva and serum samples
[3] = biological target: human PRB1 protein (human) (UniProt P04280); experiment: Western blotting of human saliva
[4] = biological target: human PRB1 protein (human) (UniProt P04280); experiment: pull-down assay from human serum

Measured: binding

B1: Rat anti-hPRB1 IgM(2B3) mAb (antibody, V domains shown)
VH: QIQLVQSGPELKKPGESVKISCKASGYTFTDYAMHWVKQAPGKGLKWMGWINTYTGKPTYADDCKGRFVFSLEASASTANLQISNLKNEDTATYFCAREMYTTDYYYVDYWGQGVMVTVSS
VL: DIHVTQSPASLSASPEEIVTITCQASQDIDSSLLWYQQKPGKSPQLLIYSATILADGVPSRFSGSRSGTQYSLKISRLQVEDIGTYYCLQFSSSPLTFGSGTKLEIK
binds: [1] | [2]

B2: Rat anti-hPRB1 IgG(8A10) mAb (antibody, V domains shown)
VH: QVNLLQSGAALVKPGASVKLSCKASGYTFTDYYIHWVRQSHGKSLEWIGFINPNSGYTTYNEKFKSKATLTVDKSTNTAYMELSRLTSEDSATYYCTRFAMDAWGQGASVTVSS
VL: DVVVSQTPPTLSATIGQSVSISCRSSQSLLHSNGNTYLNWLLQRPGQPPQLLIYLVSRLESGVPNRFSGSGSGTDFTLKISGVEAEDLGVYYCVQSIHAPNTFGAGTKLELK
binds: all assays above
